# Measured values reported in patent US20100317830A1, “BACE455, AN ALTERNATIVE SPLICE VARIANT OF THE HUMAN BETA-SECRETASE” (EXONHIT THERAPEUTICS SA, priority 2003, published 2010).
# For at least one compound, name, drawing or mass did not settle the structure.
# Test system: endogenously expressed APP in SH-SY5Y cells
# Assay: Aβ1-40 double antibody sandwich ELISA on conditioned medium of transfected SH-SY5Y cells
# Type: cell-based, human
# Conditions: BACE455 cells + 10 μg/ml BFA; control set as 100%; +− SEM
# Method: Cells were harvested 3 days after plating and processed for Western Blotting experiments as described above.
# Cell culture supernatants harvested 72 hours after plating were analyzed in a standard double antibody isoform-specific Aβ1-40 ELISA (BioSource International) as follows. […] The detecting antibody is specific for Abeta 1-40 and the conjugated secondary antibody is an anti-rabbit IgG conjugated to horseradish peroxydase. Synthetic human Aβ1-40 standard peptides are serially diluted in the supplied sample diluent for the generation of standard curves.
# Human Abeta 1-40 standards were added after washing the plate, as well as 100 μl/well of sample, e.g., conditioned medium of transfected cells. The plate was incubated at 4[deg.] C. overnight. The next day, after washing the plate four times, 100 μl/well rabbit detection antibody was added and incubated for 2 hours on an orbital plate shaker at 20 degree C. […] 100 μl/well stop solution was added and absorbance of each well was read at 450 nm within two hours, with a solution of 100 μl each of chromogen and stop solution as the blank. […] The samples with absorbance values falling within the standard curve were extrapolated (by comparison to the values obtained for the A-β40 and A-β42 standard peptides analyzed on the same plate) from the standard curves and expressed in pg/ml culture medium.
smiles,measurement,value
"C[C@H]1CCC/C=C/[C@@H]2C[C@H](O)C[C@H]2[C@H](O)/C=C/C(=O)O1 [BFA, brefeldin A]",Aβ release (% of control),95.15 +− 5.06 % of control
